Results deposited as PubChem BioAssay AID504764 (Drosophila RNAi Screening Center, 2011)

Screen: 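Genes whose knock-down alters Notch-dependent transcription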 (primary screen)
System: Drosophila Kc167 cells
Knock-down reagent: long dsRNA against Drosophila genes
Timing: about 5 days (4 days dsRNA, then 24 h after transfection)
Treatment: transfection of constitutively active membrane-tethered Notch lacking the extracellular domain, read 24 h later
Detection: 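Light from a Notch-responsive E(spl)m3 luciferase reporter under active Notch, with control-promoter and no-Notch reporter wells to normalise; raw counts from paired wells a and b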
Direction: induced reporter light, run 1, well a and induced reporter light, run 1, well b: higher = more light from the Notch target reporter with active Notch; control promoter light, run 1, well a and control promoter light, run 1, well b: higher = more light from the viral control promoter (cell number, transfection, viability); uninduced reporter light, run 1, well a: higher = more light from the Notch target reporter without active Notch
Call rule: 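Hit if the duplicate-averaged log2 ratio of induced to control-promoter light gives a plate-wise z beyond ±2, or induced to uninduced beyond ±1.8; weak-control or discordant-duplicate wells dropped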
Meaning of the calls: active = modifier hit (raised or lowered Notch signal); inactive = not a hit
The deposit covers about 22,000 reagents; shown is an unselected part of those with a known target gene and a result. In the full data, 403 (1.9%) are marked active. 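Unnormalised raw counts per well; ratio z-scores behind the hit calls and whether each hit raises or lowers signal are not deposited.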 The numbers tell different reagents against one gene apart. Names joined by + are all predicted targets of the reagent. Reagent sequences are not shown. Not stated in the record: the amount of reagent.

| gene knocked down | dsRNA no. | induced reporter light, run 1, well a | induced reporter light, run 1, well b | control promoter light, run 1, well a | control promoter light, run 1, well b | uninduced reporter light, run 1, well a | outcome |
| --- | --- | --- | --- | --- | --- | --- | --- |
| Cep97 (Centrosomal protein 97kDa) | 1 | 2.03e5 | 2.07e5 | 2.13e5 | 2.07e5 | 20660 | inactive |
| CG1902 | 1 | 1.39e5 | 1.82e5 | 1.71e5 | 1.39e5 | 14305 | inactive |
| ND-18 (NADH dehydrogenase (ubiquinone) 18 kDa subunit) | 1 | 98645 | 96885 | 1.17e5 | 1.20e5 | 9965 | inactive |
| CG4839 | 1 | 2.59e5 | 2.91e5 | 2.49e5 | 2.15e5 | 22380 | inactive |
| CG4839 | 2 | 1.14e5 | 1.21e5 | 88060 | 1.03e5 | 18100 | inactive |
| Phb1 (Prohibitin 1) | 1 | 1.71e5 | 1.48e5 | 1.29e5 | 1.19e5 | 12165 | inactive |
| CG3589 | 1 | 1.90e5 | 1.56e5 | 1.69e5 | 1.66e5 | 12635 | inactive |
| Efhc1.1 (EF-hand domain containing 1.1) | 1 | 77050 | 67185 | 83885 | 80400 | 11982 | inactive |
| CG6972 | 1 | 1.22e5 | 1.41e5 | 1.77e5 | 1.96e5 | 11825 | inactive |
| Mzt1 (Mitotic spindle organizing protein 1) | 1 | 2.04e5 | 1.83e5 | 2.11e5 | 2.47e5 | 14260 | inactive |
| CG9973 (retired record) | 1 | 1.45e5 | 1.49e5 | 2.59e5 | 2.64e5 | 11830 | inactive |

Next part, starting with the last 4 of the part before.
| gene knocked down | dsRNA no. | induced reporter light, run 1, well a | induced reporter light, run 1, well b | control promoter light, run 1, well a | control promoter light, run 1, well b | uninduced reporter light, run 1, well a | outcome |
| --- | --- | --- | --- | --- | --- | --- | --- |
| Efhc1.1 (EF-hand domain containing 1.1) | 1 | 77050 | 67185 | 83885 | 80400 | 11982 | inactive |
| CG6972 | 1 | 1.22e5 | 1.41e5 | 1.77e5 | 1.96e5 | 11825 | inactive |
| Mzt1 (Mitotic spindle organizing protein 1) | 1 | 2.04e5 | 1.83e5 | 2.11e5 | 2.47e5 | 14260 | inactive |
| CG9973 (retired record) | 1 | 1.45e5 | 1.49e5 | 2.59e5 | 2.64e5 | 11830 | inactive |
| Acsx4 (Acyl-CoA synthetase X4) | 1 | 1.89e5 | 1.59e5 | 1.93e5 | 1.89e5 | 12215 | inactive |
| CG9919 | 1 | 1.24e5 | 1.51e5 | 1.38e5 | 1.24e5 | 12305 | inactive |
| Cyp313a4 (Cytochrome P450 313a4) | 1 | 91455 | 68435 | 83920 | 87570 | 5845 | inactive |
| CG31380 | 1 | 1.59e5 | 1.68e5 | 1.66e5 | 2.02e5 | 13805 | inactive |
| Zip99C (Zinc/iron regulated transporter-related protein 99C) | 1 | 1.76e5 | 1.52e5 | 1.91e5 | 1.86e5 | 12350 | inactive |
| CG3739 | 1 | 1.97e5 | 1.83e5 | 2.34e5 | 2.34e5 | 14835 | inactive |
| Nnk (Nicknack) | 1 | 1.92e5 | 1.53e5 | 1.68e5 | 1.53e5 | 10600 | inactive |
| Hira | 1 | 1.48e5 | 1.51e5 | 2.74e5 | 2.92e5 | 11850 | inactive |
| Ugt36E1 (UDP-glycosyltransferase family 36 member E1) | 1 | 2.22e5 | 2.88e5 | 1.91e5 | 2.09e5 | 16690 | inactive |
| Jon25Bii (Jonah 25Bii) | 1 | 2.24e5 | 1.98e5 | 2.01e5 | 2.03e5 | 13455 | inactive |
| CG4983 | 1 | 2.20e5 | 2.43e5 | 2.07e5 | 1.89e5 | 16180 | inactive |
| CG34012 | 1 | 1.39e5 | 1.63e5 | 1.49e5 | 1.62e5 | 10820 | inactive |
| CG12698 | 1 | 1.15e5 | 82240 | 81020 | 73380 | 10180 | inactive |
| Hsp70Aa + Hsp70Bb + Hsp70Ba + 3 more | 1 | 77885 | 86020 | 89675 | 98490 | 5730 | inactive |
| Cka (Connector of kinase to AP-1) | 1 | 1.33e5 | 1.81e5 | 72370 | 90230 | 18930 | inactive |
| FLASH (FLICE-associated huge protein) | 1 | 2.29e5 | 2.08e5 | 3.44e5 | 3.53e5 | 18575 | inactive |
| Rexo5 (RNA exonuclease 5) | 1 | 1.93e5 | 1.85e5 | 3.15e5 | 1.96e5 | 10400 | inactive |
| CG33937 (retired record) | 1 | 1.19e5 | 1.15e5 | 97995 | 85805 | 5905 | inactive |
| CG1523 | 1 | 1.60e5 | 1.54e5 | 1.96e5 | 2.33e5 | 10220 | inactive |
| CG13202 | 1 | 1.02e5 | 93685 | 1.23e5 | 1.15e5 | 9960 | inactive |
| CG12994 | 1 | 94395 | 1.05e5 | 1.05e5 | 91040 | 7460 | inactive |
| CG12994 | 2 | 1.40e5 | 1.44e5 | 1.67e5 | 1.50e5 | 14425 | inactive |
| POSH (Plenty of SH3s) | 1 | 91100 | 75755 | 1.19e5 | 90255 | 8192 | inactive |
